Laboratory results: patent US20260248828A1, “Pyropheophorbide Analogues for Therapy and Diagnosis” (RMW Cho Group Limited, priority 2023, published 2026)

Tested on: SKOV3 ovarian cancer cells
Assay: Phototoxicity in SKOV3 cells after 660 nm light activation (AlamarBlue viability)
Format: cell-based, Human
Conditions: calculated using phototoxicity IC90 vs dark toxicity IC10, SKOV3 cells
Protocol: Samples were stored at 4° C. protected from light.
All data are shown as mean±SD (where appropriate).
To test for phototoxicity, cells incubated with pyropheophorbide a analogues (0-20 μM in DMSO) had culture media replaced after 24 hours (as above) and were then exposed to a 660 nm laser (Invion) or light-emitting diode (LED) panel (Invion) with optical power density at 50 mW/cm^2 for 5 mins (total 15 J/cm^2). Laser and LED exposure induce an equivalent response in relation to phototoxicity. Following activation, cells were cultured for a further 24 hours. Media was then replaced with fresh media containing AlamarBlue, and % viable cells remaining assessed as above. Controls included cells treated with pyropheophorbide a analogues but not activated by laser light; cells without pyropheophorbide a analogue treatment but with laser light; and untreated controls. All measurements were made in quadruplicate.
To evaluate the therapeutic potential of pyropheophorbide a analogues, the therapeutic index (TI) was calculated. TI provides a quantitative measurement to describe relative drug safety, by comparing the drug concentration required for desirable effects versus the concentration resulting in undesirable off-target toxicity. TI was calculated using phototoxicity IC90 vs dark toxicity IC10.

Compound	Therapeutic Index
CCC1=C(C)c2cc3[nH]c(cc4nc(c5c6[nH]c(cc1n2)c(C)c6C(=O)C5)[C@@H](CCC(=O)OC)[C@@H]4C)c(C)c3COC(=O)NCCC[P+](c1ccccc1)(c1ccccc1)c1ccccc1 [Compound 1, pyropheophorbide a methyl ester 9-(N-(3-triphenylphosphoniumpropyl)bromide)carbamate]	81.26
C=Cc1c(C)c2cc3nc(c(CC(=O)N[C@@H](CC(=O)O)C(=O)O)c4[nH]c(cc5nc(cc1[nH]2)C(C)=C5CC)c(C)c4C(=O)O)[C@@H](CCC(=O)O)[C@@H]3C [Talaporfin sodium, reference compound]	0.49
C=Cc1c(C)c2cc3nc(c(C)c4[nH]c(cc5nc(cc1[nH]2)C(C)=C5CC)c(C)c4C(=O)O)[C@@H](CCC(=O)O)[C@@H]3C [Chlorin e4 disodium, chlorin e4 disodium, reference compound]	1.89
CCC1=C(C)c2cc3[nH]c(cc4nc(c5c6[nH]c(cc1n2)c(C)c6C(=O)C5)[C@@H](CCC(=O)OC)[C@@H]4C)c(C)c3COC(=O)CCCC[P+](c1ccccc1)(c1ccccc1)c1ccccc1 [Compound 2, pyropheophorbide a methyl ester 9-(oxopentyl)triphenylphosphonium bromide]	207.50
CCC1=C(C)c2cc3[nH]c(cc4nc(c5c6[nH]c(cc1n2)c(C)c6C(=O)C5)[C@@H](CCC(=O)OC)[C@@H]4C)c(C)c3CN(C)C(=O)CCCC[P+](c1ccccc1)(c1ccccc1)c1ccccc1 [Compound 3, pyropheophorbide a 9-N-(methyl-5-triphenylphosphonium bromidepentanamide) methyl ester]	2000.00
CCC1=C(C)c2cc3[nH]c(cc4nc(c5c6[nH]c(cc1n2)c(C)c6C(=O)C5)[C@@H](CCC(=O)OC)[C@@H]4C)c(C)c3CNCCC[P+](c1ccccc1)(c1ccccc1)c1ccccc1 [Compound 4, pyropheophorbide a 9-(N-3-triphenylphosphoniumpropyl bromide)aminomethyl methyl ester]	1060.42
CCOC(=O)N(CCC[P+](c1ccccc1)(c1ccccc1)c1ccccc1)Cc1c(C)c2cc3nc(c4c5[nH]c(cc6nc(cc1[nH]2)C(C)=C6CC)c(C)c5C(=O)C4)[C@@H](CCC(=O)OC)[C@@H]3C [Compound 5, pyropheophorbide a 9-(N-3-triphenylphosphoniumpropyl bromide ethylcarbamate)aminomethyl methyl ester]	8161.67
CCC1=C(C)c2cc3[nH]c(cc4nc(c5c6[nH]c(cc1n2)c(C)c6C(=O)C5)[C@@H](CCC(=O)OC)[C@@H]4C)c(C)c3CO [Comparative Compound 1, pyropheophorbide a 9-hydroxymethyl methyl ester, reference compound]	33.84
